The supplement of paper PMC10060354, “Discovery of a small molecule ligand of FRS2 that inhibits invasion and tumor growth” (Cellular Oncology, 2022)
Many values rest on one well or one pass, so single values are uncertain.

Protein sequences, listed by entry. Tags and fused reporters are not part of them. Lines headed by an entry give the natural chain unless they say otherwise; changes in a name come on top.
UniProt P62304, whole entry: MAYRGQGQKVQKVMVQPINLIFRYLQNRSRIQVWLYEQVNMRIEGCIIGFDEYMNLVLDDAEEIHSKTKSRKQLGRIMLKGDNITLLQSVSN
UniProt Q96JQ2: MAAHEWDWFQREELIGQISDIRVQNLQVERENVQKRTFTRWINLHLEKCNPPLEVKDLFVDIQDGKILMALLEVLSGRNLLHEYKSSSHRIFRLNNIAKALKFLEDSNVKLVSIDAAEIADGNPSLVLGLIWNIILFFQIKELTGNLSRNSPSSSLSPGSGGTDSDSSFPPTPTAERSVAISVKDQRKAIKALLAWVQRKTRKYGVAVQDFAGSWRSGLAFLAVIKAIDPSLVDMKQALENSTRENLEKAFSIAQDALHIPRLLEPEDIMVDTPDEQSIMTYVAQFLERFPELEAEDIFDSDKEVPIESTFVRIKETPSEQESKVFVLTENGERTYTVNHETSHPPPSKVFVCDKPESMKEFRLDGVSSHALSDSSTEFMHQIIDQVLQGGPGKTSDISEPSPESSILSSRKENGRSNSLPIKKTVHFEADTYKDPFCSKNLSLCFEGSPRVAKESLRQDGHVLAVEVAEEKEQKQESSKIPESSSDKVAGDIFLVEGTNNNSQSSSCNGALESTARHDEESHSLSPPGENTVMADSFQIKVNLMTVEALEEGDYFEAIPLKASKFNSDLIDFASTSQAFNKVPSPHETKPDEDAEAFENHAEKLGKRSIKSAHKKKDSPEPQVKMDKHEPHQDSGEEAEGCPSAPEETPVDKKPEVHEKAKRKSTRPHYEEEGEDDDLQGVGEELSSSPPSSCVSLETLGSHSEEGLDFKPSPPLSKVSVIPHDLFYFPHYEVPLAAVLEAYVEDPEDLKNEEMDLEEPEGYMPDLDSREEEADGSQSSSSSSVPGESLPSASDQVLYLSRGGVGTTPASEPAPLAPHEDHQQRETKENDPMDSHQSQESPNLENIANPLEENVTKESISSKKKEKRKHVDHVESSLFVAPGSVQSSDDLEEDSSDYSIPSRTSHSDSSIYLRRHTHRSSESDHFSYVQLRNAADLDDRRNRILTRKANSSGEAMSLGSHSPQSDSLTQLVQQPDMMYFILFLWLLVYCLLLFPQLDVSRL
UniProt Q5ST30: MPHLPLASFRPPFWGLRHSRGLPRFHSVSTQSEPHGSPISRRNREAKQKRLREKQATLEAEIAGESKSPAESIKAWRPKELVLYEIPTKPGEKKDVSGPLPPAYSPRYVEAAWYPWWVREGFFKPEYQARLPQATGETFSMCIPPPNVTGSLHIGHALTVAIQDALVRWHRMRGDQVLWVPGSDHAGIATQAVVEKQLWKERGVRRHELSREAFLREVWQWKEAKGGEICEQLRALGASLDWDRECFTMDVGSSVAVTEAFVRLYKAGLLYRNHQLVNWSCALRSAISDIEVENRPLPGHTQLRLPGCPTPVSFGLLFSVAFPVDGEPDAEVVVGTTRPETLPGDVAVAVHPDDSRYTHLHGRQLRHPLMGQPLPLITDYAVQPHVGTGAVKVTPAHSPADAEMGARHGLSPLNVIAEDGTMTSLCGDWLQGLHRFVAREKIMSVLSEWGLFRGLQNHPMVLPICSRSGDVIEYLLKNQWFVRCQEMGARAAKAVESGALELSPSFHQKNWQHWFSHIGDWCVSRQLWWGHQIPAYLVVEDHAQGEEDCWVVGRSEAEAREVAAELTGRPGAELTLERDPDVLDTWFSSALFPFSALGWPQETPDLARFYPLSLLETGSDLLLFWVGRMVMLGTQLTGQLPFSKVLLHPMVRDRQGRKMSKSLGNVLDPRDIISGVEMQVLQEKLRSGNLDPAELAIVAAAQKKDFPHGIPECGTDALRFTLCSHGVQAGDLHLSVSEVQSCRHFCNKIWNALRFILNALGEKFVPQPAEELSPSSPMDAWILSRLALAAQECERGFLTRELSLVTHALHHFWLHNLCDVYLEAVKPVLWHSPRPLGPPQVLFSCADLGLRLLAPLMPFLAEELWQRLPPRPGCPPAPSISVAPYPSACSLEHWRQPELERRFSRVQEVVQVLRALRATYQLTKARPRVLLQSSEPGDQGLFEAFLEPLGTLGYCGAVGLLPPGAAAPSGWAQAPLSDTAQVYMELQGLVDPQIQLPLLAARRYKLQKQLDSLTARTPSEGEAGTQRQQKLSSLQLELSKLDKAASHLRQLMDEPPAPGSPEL
UniProt Q00403, whole entry: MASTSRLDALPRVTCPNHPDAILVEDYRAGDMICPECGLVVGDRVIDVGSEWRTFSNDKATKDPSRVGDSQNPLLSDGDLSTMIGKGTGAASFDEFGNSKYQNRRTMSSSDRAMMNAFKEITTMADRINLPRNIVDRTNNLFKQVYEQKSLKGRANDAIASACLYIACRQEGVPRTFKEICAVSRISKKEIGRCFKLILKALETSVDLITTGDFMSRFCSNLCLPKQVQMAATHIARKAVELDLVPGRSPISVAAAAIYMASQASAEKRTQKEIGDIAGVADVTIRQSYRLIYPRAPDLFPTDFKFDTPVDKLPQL
UniProt O43759: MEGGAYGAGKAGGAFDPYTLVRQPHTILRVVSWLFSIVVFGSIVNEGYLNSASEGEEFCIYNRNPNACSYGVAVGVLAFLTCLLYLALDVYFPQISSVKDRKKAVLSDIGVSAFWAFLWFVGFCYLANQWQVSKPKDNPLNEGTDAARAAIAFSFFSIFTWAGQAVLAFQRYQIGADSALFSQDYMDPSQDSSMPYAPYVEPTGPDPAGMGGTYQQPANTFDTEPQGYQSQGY
UniProt P27707: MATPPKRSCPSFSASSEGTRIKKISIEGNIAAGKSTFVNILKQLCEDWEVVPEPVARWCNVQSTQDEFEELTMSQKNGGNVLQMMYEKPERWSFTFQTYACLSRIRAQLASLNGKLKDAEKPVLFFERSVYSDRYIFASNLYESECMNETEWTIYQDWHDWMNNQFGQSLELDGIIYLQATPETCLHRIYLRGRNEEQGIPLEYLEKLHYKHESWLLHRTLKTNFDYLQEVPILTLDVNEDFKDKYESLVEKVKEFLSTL
UniProt Q86WH2: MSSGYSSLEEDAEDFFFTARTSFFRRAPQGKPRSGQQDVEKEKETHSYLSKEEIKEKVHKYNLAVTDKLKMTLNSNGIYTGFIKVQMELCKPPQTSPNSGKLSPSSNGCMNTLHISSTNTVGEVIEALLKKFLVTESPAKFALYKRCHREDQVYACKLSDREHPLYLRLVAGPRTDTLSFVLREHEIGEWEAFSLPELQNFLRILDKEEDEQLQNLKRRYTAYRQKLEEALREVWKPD
UniProt P52657, whole entry: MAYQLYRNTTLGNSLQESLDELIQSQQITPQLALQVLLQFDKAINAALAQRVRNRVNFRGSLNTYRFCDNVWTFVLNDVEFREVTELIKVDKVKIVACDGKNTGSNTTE
UniProt Q8WUQ7: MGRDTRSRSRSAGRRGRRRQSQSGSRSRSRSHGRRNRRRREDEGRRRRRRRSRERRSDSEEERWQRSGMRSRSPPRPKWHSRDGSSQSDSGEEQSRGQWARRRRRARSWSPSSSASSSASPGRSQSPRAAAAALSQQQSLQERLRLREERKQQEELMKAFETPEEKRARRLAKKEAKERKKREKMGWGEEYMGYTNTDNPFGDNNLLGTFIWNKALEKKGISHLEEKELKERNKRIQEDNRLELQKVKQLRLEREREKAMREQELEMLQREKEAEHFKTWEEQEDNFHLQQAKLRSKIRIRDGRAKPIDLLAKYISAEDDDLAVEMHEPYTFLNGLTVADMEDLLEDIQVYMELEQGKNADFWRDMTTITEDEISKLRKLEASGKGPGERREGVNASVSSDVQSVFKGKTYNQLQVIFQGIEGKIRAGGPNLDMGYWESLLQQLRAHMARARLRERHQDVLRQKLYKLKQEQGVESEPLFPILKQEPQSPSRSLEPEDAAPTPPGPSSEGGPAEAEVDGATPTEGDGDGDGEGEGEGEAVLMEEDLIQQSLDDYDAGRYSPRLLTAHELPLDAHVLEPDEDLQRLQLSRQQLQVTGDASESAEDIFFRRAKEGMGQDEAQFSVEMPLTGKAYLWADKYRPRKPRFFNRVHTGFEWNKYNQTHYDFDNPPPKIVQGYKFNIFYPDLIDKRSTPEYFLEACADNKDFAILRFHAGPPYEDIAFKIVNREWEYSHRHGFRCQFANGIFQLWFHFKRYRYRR
UniProt Q96QG7: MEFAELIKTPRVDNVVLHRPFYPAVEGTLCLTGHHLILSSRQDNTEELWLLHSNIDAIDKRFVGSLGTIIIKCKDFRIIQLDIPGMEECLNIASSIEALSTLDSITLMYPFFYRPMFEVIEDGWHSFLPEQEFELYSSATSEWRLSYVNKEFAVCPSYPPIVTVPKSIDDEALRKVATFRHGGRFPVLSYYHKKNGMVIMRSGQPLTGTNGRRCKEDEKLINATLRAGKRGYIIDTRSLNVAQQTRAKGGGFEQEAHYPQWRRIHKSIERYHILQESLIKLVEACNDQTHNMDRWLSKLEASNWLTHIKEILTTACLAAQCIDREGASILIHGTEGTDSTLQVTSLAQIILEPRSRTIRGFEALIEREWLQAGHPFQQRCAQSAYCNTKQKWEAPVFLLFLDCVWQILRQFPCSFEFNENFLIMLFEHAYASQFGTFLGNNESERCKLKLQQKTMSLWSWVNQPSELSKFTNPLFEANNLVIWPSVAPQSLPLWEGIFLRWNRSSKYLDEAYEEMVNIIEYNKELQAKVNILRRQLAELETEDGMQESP
UniProt P27540, whole entry: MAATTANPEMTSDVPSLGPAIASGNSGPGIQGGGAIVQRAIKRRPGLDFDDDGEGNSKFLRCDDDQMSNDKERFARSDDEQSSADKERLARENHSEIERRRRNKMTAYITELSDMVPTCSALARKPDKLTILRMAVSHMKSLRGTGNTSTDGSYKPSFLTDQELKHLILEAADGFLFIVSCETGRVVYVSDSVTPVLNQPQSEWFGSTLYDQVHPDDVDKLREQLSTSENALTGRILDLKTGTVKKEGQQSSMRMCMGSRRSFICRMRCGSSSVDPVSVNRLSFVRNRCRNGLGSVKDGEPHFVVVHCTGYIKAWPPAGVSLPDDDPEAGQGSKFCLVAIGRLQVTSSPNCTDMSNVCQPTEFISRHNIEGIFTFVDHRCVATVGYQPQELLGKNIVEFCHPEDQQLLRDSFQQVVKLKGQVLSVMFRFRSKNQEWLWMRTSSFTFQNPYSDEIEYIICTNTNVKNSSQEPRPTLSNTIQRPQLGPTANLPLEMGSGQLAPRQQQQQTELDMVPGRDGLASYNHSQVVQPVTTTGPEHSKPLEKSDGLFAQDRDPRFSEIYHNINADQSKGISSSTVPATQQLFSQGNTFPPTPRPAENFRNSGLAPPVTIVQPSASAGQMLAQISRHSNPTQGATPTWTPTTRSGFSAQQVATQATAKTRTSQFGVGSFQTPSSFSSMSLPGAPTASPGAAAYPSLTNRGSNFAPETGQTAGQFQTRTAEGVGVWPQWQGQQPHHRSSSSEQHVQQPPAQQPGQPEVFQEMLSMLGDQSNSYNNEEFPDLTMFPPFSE
UniProt Q9BXB4: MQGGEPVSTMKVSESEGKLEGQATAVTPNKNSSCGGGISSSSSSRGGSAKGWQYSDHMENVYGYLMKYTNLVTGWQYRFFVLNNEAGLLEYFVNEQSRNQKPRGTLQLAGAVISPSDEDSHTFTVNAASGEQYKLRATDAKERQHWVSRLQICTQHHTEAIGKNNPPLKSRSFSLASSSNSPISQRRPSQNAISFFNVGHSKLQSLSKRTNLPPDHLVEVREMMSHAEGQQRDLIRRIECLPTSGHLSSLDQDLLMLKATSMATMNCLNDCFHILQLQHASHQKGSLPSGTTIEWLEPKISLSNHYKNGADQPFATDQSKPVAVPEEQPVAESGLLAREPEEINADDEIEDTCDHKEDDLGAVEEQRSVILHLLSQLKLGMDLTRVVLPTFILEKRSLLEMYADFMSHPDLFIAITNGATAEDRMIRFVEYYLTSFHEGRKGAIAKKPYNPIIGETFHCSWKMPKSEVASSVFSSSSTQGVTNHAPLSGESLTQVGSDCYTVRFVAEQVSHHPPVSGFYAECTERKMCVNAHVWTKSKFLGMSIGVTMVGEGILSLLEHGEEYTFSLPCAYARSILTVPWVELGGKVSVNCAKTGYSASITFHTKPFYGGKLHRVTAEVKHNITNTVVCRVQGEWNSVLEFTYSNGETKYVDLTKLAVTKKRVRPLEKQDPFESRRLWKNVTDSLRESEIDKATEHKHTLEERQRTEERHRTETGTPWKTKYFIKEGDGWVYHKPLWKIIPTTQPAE
UniProt Q9NRB3: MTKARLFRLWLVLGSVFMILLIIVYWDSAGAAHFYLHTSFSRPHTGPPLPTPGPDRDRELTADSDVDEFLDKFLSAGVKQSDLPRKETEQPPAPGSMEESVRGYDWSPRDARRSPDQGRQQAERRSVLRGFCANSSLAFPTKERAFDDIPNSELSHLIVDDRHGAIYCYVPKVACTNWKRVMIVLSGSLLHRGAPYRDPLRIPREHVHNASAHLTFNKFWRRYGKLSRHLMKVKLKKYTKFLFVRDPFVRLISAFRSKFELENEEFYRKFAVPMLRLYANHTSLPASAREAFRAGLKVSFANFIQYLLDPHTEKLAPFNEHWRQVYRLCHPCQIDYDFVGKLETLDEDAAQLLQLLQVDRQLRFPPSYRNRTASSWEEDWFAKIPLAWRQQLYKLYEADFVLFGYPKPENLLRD

Compound: [O-][N+](C(C1=C(C(O)=C2)NC(C(C=C3)=CC=C3Cl)C4C1C=CC4)=C2Cl)=O
Assay: melting temperature shift (compound 7 minus DMSO); higher = compound stabilises the protein
Conditions: 10 µM
Protocol: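 Thermal proteome profiling (TMT mass spectrometry) in intact DAOY medulloblastoma cells or DAOY lysates treated with 10 µM compound 7 or DMSO, heated at 10 temperatures from 40.5 to 73.8 °C for 3 min. Melting curves were fitted with the Bioconductor TPP package, and the melting point difference between compound and vehicle is reported per protein (single curve per condition).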

[1] = system: DAOY cell lysate, treatment time: 20 min, 4 °C
[2] = system: intact DAOY cells, treatment time: 90 min, 37 °C

Row | Target | melting temperature shift [1] [°C] | melting temperature shift [2] [°C]
1 | ATL3 (UniProt Q6DD88) | 0.771 | -1.3
2 | AHNAK2 (UniProt Q8IVF2) | 0.889 | 0.157
3 | UniProt Q9UKG9 | 3.2 | 1.23
4 | SEC13 (UniProt P55735) | 0.506 | 0.112
5 | PC (UniProt P11498) | 0.885 | -1.25
6 | UniProt P18583 | 0.853 | 7.34
7 | RAE1 (UniProt P78406) | -0.245 | 1.01
8 | UniProt O43602 |  | -0.962
9 | BET1 (UniProt O15155) | 0.0991 | 
10 | PPP2R1A (UniProt P30153) | -0.241 | -0.00569
11 | WDR6 (UniProt Q9NNW5) | -0.17 | 0.385
12 | FARP1 (UniProt Q9Y4F1) | 1.74 | -1.07
13 | UniProt P62304 | 0.304 | 1
14 | TRMT1 (UniProt Q9NXH9) | -0.951 | -0.0856
15 | UniProt Q96JQ2 | 1.35 | 
16 | NUB1 (UniProt Q9Y5A7) | -0.399 | 0.0823
17 | VARS2 (UniProt Q5ST30) | 3.49 | -0.302
18 | CEP170B (UniProt Q9Y4F5) |  | 0.719
19 | PLS1 (UniProt Q14651) | -0.577 | -0.393
20 | UniProt A8MPP1 | -0.612 | 
21 | KCTD10 (UniProt Q9H3F6) | 1.5 | -0.398
22 | DHPS (UniProt P49366) | -0.0331 | 1.29
23 | NDUFS8 (UniProt O00217) | 0.297 | 0.109

Copied from above: nos. 21–23
Row | Target | melting temperature shift [1] [°C] | melting temperature shift [2] [°C]
21 | KCTD10 (UniProt Q9H3F6) | 1.5 | -0.398
22 | DHPS (UniProt P49366) | -0.0331 | 1.29
23 | NDUFS8 (UniProt O00217) | 0.297 | 0.109

More entries

Row | Target | melting temperature shift [1] [°C] | melting temperature shift [2] [°C]
24 | DSTN (UniProt P60981) | -0.308 | 1.16
25 | PMM2 (UniProt O15305) | -0.409 | -0.782
26 | POR (UniProt P16435) | 0.55 | -0.337
27 | LDHA (UniProt P00338) | -0.694 | -0.0315
28 | ATG101 (UniProt Q9BSB4) | -2.35 | 
29 | HSPA2 (UniProt P54652) | 0.512 | -0.256
30 | TBC1D5 (UniProt Q92609) | -0.786 | -0.487
31 | RNF214 (UniProt Q8ND24) | 0.0795 | -0.0904
32 | GTF2B (UniProt Q00403) | 0.838 | -1.19
33 | UniProt O43759 | 4.15 | 1.24
34 | TMOD3 (UniProt Q9NYL9) | -0.268 | -0.149
35 | ROBO1 (UniProt Q9Y6N7) | -1.51 | 
36 | AKAP10 (UniProt O43572) |  | -2.56
37 | UniProt Q68DK2 | -3.22 | 
38 | UniProt Q8NFT6 | 1.37 | 
39 | MSMO1 (UniProt Q15800) | 0.0219 | -1.16
40 | DCK (UniProt P27707) | -0.407 | -0.235
41 | EHD4 (UniProt Q9H223) | -0.764 | -1.92
42 | ATG16L1 (UniProt Q676U5) | -1.26 | -0.885
43 | UniProt Q86WH2 |  | -2.39
44 | TECR (UniProt Q9NZ01) | 0.271 | -2.05
45 | EP300 (UniProt Q09472) | -0.844 | 2.19
46 | NEK3 (UniProt P51956) | 2.15 | -1.09

Row | Target | melting temperature shift [1] [°C] | melting temperature shift [2] [°C]
47 | METTL1 (UniProt Q9UBP6) | -1.05 | -0.252
48 | UniProt P19823 |  | -0.689
49 | DLG1 (UniProt Q12959) | 1.05 | 0.0243
50 | GEMIN4 (UniProt P57678) | -1.92 | -1.24
51 | UniProt Q75QN2 | -0.389 | -2.21
52 | ZC3H18 (UniProt Q86VM9) | 0.75 | -0.0398
53 | NDUFA2 (UniProt O43678) | 0.632 | -0.154
54 | SKP2 (UniProt Q13309) | -1.64 | 
55 | CD276 (UniProt Q5ZPR3) | 1.79 | 
56 | UniProt A6NCE7 |  | -0.00167
57 | UniProt A8MWX3 |  | 0.675
58 | CDC40 (UniProt O60508) | 1.16 | 0.734
59 | UniProt Q16512 | -1.67 | -0.422
60 | MRPS22 (UniProt P82650) | 0.258 | -0.605
61 | GTF2A2 (UniProt P52657) | 0.132 | -2.24
62 | CACTIN (UniProt Q8WUQ7) | 1.49 | -0.583
63 | MTMR9 (UniProt Q96QG7) | 1.27 | -0.0279
64 | UniProt Q8TE49 |  | 2.89
65 | MCM3 (UniProt P25205) | -0.484 | -1.06
66 | UniProt Q5SY16 | 1.28 | 0.786
67 | FERMT2 (UniProt Q96AC1) | -0.733 | -0.414
68 | ARNT (UniProt P27540) |  | -0.882
69 | MLLT4 (UniProt P55196) | -0.28 | -0.219

Row | Target | melting temperature shift [1] [°C] | melting temperature shift [2] [°C]
70 | OSBPL11 (UniProt Q9BXB4) | -0.635 | 1.97
71 | UniProt Q96JB8 | 0.444 | 
72 | UniProt Q99877 |  | -0.465
73 | TRIM33 (UniProt Q9UPN9) | -0.0236 | -0.177
74 | KIAA0930 (UniProt Q6ICG6) | -1.12 | 
75 | UniProt P02689 |  | -0.195
76 | UniProt Q6P0N0 | 3.23 | 
77 | UniProt Q6BEB4 |  | 1.33
78 | BRD2 (UniProt P25440) | 1.25 | -1.18
79 | OLA1 (UniProt Q9NTK5) | -0.39 | -0.778
80 | CCNA2 (UniProt P20248) | -0.625 | -0.584
81 | GTF2F1 (UniProt P35269) | -1.06 | -0.865
82 | TFCP2 (UniProt Q12800) | 1.06 | 0.364
83 | SMAP2 (UniProt Q8WU79) | 0.513 | 1.56
84 | UniProt Q5SW96 | -1.48 | 
85 | UniProt Q9NRB3 | 0.504 | 
86 | MAP7D3 (UniProt Q8IWC1) | 0.788 | 3.02
87 | UniProt Q2VIR3 |  | -0.415
88 | UniProt P05089 | -3.73 | 
89 | PANK4 (UniProt Q9NVE7) | -0.273 | -1.83
90 | OPTN (UniProt Q96CV9) | -0.941 | 1.37
91 | PLCB3 (UniProt Q01970) | 0.262 | 0.049
